Data from US20100184668A1.
No constants are given. Whether binding was seen depends on the method and setting. Binding seen in cells or lysates may run through a third protein. Some binding calls cover weakened binding; strength is not graded here. For some assays here: Where a sequence is shown, tags or fusion partners need not be part of it.

By UniProt entry, the sequences of proteins in these tests, tags left out. Residues count along the entry.
UniProt P16671, residues 67-157: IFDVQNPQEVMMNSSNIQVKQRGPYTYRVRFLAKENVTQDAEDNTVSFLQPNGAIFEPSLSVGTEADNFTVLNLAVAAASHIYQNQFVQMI
UniProt P07996, residues 19-1170: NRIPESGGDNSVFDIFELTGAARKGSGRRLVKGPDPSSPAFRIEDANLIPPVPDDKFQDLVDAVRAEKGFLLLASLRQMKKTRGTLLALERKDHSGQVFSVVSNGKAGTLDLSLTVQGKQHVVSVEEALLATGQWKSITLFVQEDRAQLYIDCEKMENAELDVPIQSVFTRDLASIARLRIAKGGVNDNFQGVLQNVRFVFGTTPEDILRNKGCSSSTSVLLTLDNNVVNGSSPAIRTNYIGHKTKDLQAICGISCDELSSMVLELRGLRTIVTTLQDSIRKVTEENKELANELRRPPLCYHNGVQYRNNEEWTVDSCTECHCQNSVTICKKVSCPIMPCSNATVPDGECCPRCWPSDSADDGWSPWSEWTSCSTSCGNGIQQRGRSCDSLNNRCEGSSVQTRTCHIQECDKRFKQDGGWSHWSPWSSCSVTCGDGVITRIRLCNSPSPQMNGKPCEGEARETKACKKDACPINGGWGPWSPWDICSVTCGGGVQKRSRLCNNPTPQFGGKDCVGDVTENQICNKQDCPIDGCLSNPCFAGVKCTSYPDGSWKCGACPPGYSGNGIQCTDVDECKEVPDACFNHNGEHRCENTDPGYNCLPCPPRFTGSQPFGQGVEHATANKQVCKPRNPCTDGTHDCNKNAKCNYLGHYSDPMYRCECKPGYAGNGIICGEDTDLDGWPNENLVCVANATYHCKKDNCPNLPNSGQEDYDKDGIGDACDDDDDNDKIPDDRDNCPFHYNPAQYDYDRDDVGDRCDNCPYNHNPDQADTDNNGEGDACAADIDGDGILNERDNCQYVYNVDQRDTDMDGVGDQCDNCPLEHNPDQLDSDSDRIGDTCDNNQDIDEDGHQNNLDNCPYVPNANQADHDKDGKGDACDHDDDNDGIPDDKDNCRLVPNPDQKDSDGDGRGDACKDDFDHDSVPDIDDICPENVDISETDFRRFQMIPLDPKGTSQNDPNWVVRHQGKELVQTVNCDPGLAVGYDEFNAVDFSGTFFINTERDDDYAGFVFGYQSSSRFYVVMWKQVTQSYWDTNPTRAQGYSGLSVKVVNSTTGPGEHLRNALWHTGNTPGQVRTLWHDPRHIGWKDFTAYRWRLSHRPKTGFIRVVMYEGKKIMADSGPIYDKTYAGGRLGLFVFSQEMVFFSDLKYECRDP

Legend:
[1] = biological target: GST-CD36 fusion protein spanning amino acids 67-157 of CD36 (UniProt P16671); test: GST pull-down on glutathione sepharose beads from conditioned medium of LN229 clone C9, Western blot
[2] = biological target: GST-CD36 fusion protein spanning amino acids 67-157 of CD36 (UniProt P16671); test: GST pull-down, Western blot (FIG. 5C)
[3] = biological target: GST-CD36 fusion protein spanning amino acids 67-157 of CD36 (UniProt P16671); test: GST pull-down on glutathione sepharose beads from conditioned medium, Western blot
[4] = biological target: GST-CD36 fusion protein spanning amino acids 67-157 of CD36 (UniProt P16671); test: GST pull-down (FIGS. 5A-5C)

Row | binding [1] | binding [2] | binding [3] | binding [4] | Molecule
1 | binds | binds |  |  | thrombospondin-1 (TSP1), secreted into conditioned medium of LN229 clone C9 (from UniProt P07996 19-1170) (ligand)
2 |  | binds | binds | binds | Vasculostatin 120 (Vstat120), myc/his-tagged, secreted into conditioned medium (protein, not shown: small tags and cut ends) GADAGPGPEPCATLVQGKFFGYFSAAAVFPANASRCSWTLRNPDPRRYTLYMKVAKAPVPCSGPGRVRTYQFDSFLESTRTYLGVESFDEVLRLCDPSAPLAFLQASKQFLQMRRQQPPQHDGLRPRAGPPGPTDDFSVEYLVVGNRNPSRAACQMLCRWLDACLAGSRSSHPCGIMQTPCACLGGEAGGPAAGPLAPRGDVCLRDAVAGGPENCLTSLTQDRGGHGATGGWKLWSLWGECTRDCGGGLQTRTRTCLPAPGVEGGGCEGVLEEGRQCNREACGPAGRTSSRSQSLRSTDARRREELGDELQQFGFPAPQTGDPAAEEWSPWSVCSSTCGEGWQTRTRFCVSSSYSTQCSGPLREQRLCNNSAVCPVHGAWDEWSPWSLCSSTCGRGFRDRTRTCRPPQFGGNPCEGPEKQTKFCNIALCPGRAVDGNWNEWSSWSACSASCSQGRQQRTRECNGPSYGGAECQGHWVETRDCFLQQCPVDGKWQAWASWGSCSVTCGAGSQRRERVCSGPFFGGAACQGPQDEYRQCGTQRCPEPHEICDEDNFGAVIWKETPAGEVAAVRCPRNATGLILRRCELDEEGIAYWEPPTYIRCVSIDYRNIQMMTREHLAKAQRGLPGEGVSEVIQTLVEISQDGTSYSGDLLSTIDVLRNMTEIFRRAYYSPTPGDVQNFVQILSNLLAEENRDKWEEAQLAGPNAKELFRLVEDFVDVIGFRMKDLRDAYQVTDNLVLSIHKLPASGATDISFPMKGWRATGDWAKVPEDRVTVSKSVFSTGLTEADEASVFVVGTVLYRNLGSFLALQRNTTVLNSKVISVTVKPPPRSLRTPLEIEFAHMYNGTTNQTCILWDETDVPSSSAPPQLGPWSWRGCRTVPLDALRTRCLCDRL
